Some entries share one result that the patent states for a list of compounds.
Target: T1, human CRHR2-alpha (Homo sapiens, UniProt Q13324)
T1 construct: host or cells: CHO-K1
T1 sequence (Q13324 1-411): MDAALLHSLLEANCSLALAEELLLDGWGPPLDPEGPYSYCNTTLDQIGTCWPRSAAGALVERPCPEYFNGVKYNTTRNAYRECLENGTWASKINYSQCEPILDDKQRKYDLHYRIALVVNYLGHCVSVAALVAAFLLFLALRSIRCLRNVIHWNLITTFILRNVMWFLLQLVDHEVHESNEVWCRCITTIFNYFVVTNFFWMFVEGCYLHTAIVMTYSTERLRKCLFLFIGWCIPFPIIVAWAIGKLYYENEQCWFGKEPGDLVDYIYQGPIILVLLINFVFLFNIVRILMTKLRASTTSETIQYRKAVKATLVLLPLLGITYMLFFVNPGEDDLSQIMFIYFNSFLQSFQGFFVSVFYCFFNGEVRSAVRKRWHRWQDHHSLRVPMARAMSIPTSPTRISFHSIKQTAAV
Assay: cAMP functional assay for human CRHR2 (LANCE Ultra TR-FRET)
Format: cell-based
Conditions: inhibition of cAMP production in CHO-K1 cells stably expressing human CRHR2-alpha, EC90 of human urocortin2 as agonist; read-out: IC50 against CRHR2
Procedure: cAMP functional assay for human CRHR2 The ability of the compounds of this invention to inhibit either CRHR2 is assessed by 3′,5′-cyclic adenosine monophosphate (cAMP) production in cells using the LANCE Ultra cAMP assay kit (ParkinElmer), which are designed based on the homogeneous time-resolved fluorescence resonance energy transfer (TR-FRET) immunoassay.
CHO-K1 (Chinese hamster ovary) cells stably expressing human CRHR2-alpha (DiscoveRX, Cat. 95-0048C2) are grown in HAM's F12 media supplemented with 10% fetal bovine serum (FBS), 100 units/mL penicillin G, 100 microg/mL hygromycin and 0.5 microg/mL geneticin at 37° C. in 5% CO2 humidified incubator to 80% confluence. After 7 hours starvation treatment in culture media containing 0.1% FBS, the cells are washed with Hanks balanced salt solution (HBSS) and cryopreserved.
For cAMP assay, frozen cells are thawed and washed with HBSS, followed by resuspending cells in assay buffer (HBSS containing 0.1% bovine serum albumin, 0.5 mM isobutylmethylxanthine and 5 mM Hepes, pH 7.4) at the appropriate concentration for the assay. The cell suspensions are plated on 384-well microplates (Greiner Bio-One) at a density of 4,000 cells per well. After preincubating the cells with various concentrations of the compounds for 30 min at 25° C., an assay buffer containing EC90 concentration of agonist is added and the cells are incubated for 30 min at 25° C. Human urocortin2 (Peptide Institute) is used as agonists for CRHR2. For the termination of assay, europium-labeled cAMP tracer and ULight (registered trademark) dye labeled cAMP antibodies, both prepared with Lance-Ultra cAMP detection reagent (PerkinElmer) are added in the plate and incubate for 60 min at 25° C. After incubation, TR-FRET signal is detected by EnVision plate reader (PerkinElmer). The IC50 values for compounds are calculated from dose-response curves by fitting the percent inhibition using XLfit (ID Business Solutions).

Substance | IC50 [µM]
5-chloro-N-((1r,4r)-4-((3-(2- fluoro-4-methoxyphenyl)-3- hydroxy-2-oxoindolin-1- yl)methyl)cyclohexyl)-2- (trifluoromethyl)nicotinamide [Example 164] | < 0.2
5-chloro-2-(difluoromethyl)- N-((1r,4r)-4-((6-fluoro-3-(3- fluoro-2-methoxypyridin-4-yl)- 3-hydroxy-2-oxoindolin-1- yl)methyl)cyclohexyl) nicotinamide [Example 155] | < 0.2
5-chloro-N-((1r,4r)-4-((3-(2,3- difluoro-4-methoxyphenyl)-3- hydroxy-2-oxoindolin-1- yl)methyl)cyclohexyl)-2- (difluoromethyl)nicotinamide [Example 153] | < 0.2
